No constants are given. Whether binding was seen depends on the method and setting. Binding can be weak; no strength is given. Tags and fused reporters may be left off the sequences shown.
Columns and labels:
[1] = molecular target: GST‐ETS6, glutathione S‐transferase‐tagged ETS6 (Metarhizium robertsii); assay: pull-down; called IP or Co‐IP in the paper; purified GST‐, MBP‐ and His‐tagged proteins from E. coli; blots of input and output; both purified
[2] = molecular target: GST‐ETS1, glutathione S‐transferase‐tagged ETS1 (Metarhizium robertsii); assay: as above

B1: MBP‐Spz, maltose‐binding protein‐tagged Spz (ligand, UniProt P48607 26-326)
chain: KEYERIIKELFTITNDEGVVLFNTSADSAPFMPIPTQHDDPTQKQKQNQNQSPIPETNRHYHQYHSLIQPDQYFKVQRSPNGKLNLVFNDTFVSLQRTDTEVQSEQPIPPRHPSDTFVFPDSPIAKYRPPQSPARPLRNDTKEHNPCAKDESQHLRNFCTNVDDYPDLSGLTHKLKNNFAKFFSNDLQPTDVSSRVGGSDERFLCRSIRKLVYPKKGLRADDTWQLIVNNDEYKQAIQIEECEGADQPCDFAANFPQSYNPICKQHYTQQTLASIKSDGELDVVQNSFKIPSCCKCALKTG
[1]
  binding: binds
[2]
  binding: binds
